What was measured:
[1] = system: LU-99A (Non-Small Cell Lung Carcinoma); experiment: Bliss excess, mean over the matrix (fraction); higher = more synergy
Procedure, shortened: (§1)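 Bliss excess equals the observed combination effect minus the expected value EA + EB − EA·EB, where EA and EB are the effects of each agent alone. Combination Emax is the second-highest inhibition within the matrix. Inhibition was scaled from CellTiter-Glo 2.0 luminescence, with 0 set by vehicle wells and 1 by blank wells, after 72 hours of two-drug dosing of cells plated in 1536-well plates.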

[2] = system: NCI-H1694 (Small Cell Lung Carcinoma); experiment: as above
Procedure, shortened: as §1

`COc1cc2ncnc(Nc3ccc(F)c(Cl)c3)c2cc1OCCCN1CCOCC1` [Gefitinib] + CC(C)n1c(=O)n(C)c2cnc3cc(F)c(-c4ccc(OCCCN5CCCCC5)nc4)cc3c21 [AZD1390] (first compound max 10 µM, 7x7, partner max 0.3 µM) gave a Bliss excess [1] of -0.0618 and a Bliss excess [2] of -0.0503.

Reference: the supplement of paper PMC11061612
